Some entries share one result that the patent states for a list of compounds.
Biological target: PSP24 PLGFR (Xenopus laevis, UniProt P79945)
Assay: Xenopus oocyte assay: LPA-induced oscillatory chloride currents (two-electrode voltage clamp)
Type: cell-based
Details: Xenopus oocytes, extracellular application
Description: Xenopus oocytes which endogenously express PSP24 PLGFR were used to screen the newly designed and synthesized compounds for their LPA inhibitory activity.
(§1) Oocytes were obtained from xylazine-anesthetized adult Xenopus laevis frogs (Carolina Scientific, Burlington, N.C.) under aseptic conditions and prepared for experiment. […] Oocytes were kept in Barth's solution in an incubator between 17-20° C. and were used for 2-7 days after isolation.
(§2) Electrophysiological recordings were carried out using a standard two-electrode voltage-clamp amplifier holding the membrane potential at −60 mV (GeneClamp 500, Axon Instruments, Calif.). […] Membrane currents were recorded with a NIC-310 digital oscilloscope (Nicolet, Madison, Wis.). Applications were made at intervals of 15 mins (minimum) to allow for the appropriate washout and recovery from desensitization.
as §1
as §2, with “CA).” for “Calif.).”

Protein sequences, listed by entry. Tags and fused reporters are not part of them. Lines headed by an entry give the natural chain unless they say otherwise; changes in a name come on top.
UniProt P79945: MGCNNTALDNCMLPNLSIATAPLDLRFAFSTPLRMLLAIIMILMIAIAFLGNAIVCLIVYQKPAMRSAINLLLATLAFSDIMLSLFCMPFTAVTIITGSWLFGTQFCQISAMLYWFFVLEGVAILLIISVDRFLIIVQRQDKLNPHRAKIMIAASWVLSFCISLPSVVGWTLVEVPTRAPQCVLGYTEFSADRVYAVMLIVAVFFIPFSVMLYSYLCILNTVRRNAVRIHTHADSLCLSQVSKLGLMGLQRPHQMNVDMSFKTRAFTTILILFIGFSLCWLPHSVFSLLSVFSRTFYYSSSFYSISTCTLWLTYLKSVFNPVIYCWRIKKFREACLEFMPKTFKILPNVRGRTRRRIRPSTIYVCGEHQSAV

Row | Compound | inhibition of LPA-induced chloride currents
1 | CCCCCCCCCCCCCCCCCCCCCCOP(=O)(O)O [Compound 110, Phosphoric Acid Monodocosyl Ester] | dose-dependent inhibition
2 | CCCCCCCCCCCCCCCCCCOP(=O)(O)O [Compound 109, Phosphoric Acid Monooctadecyl Ester] | dose-dependent inhibition
3 | CCCCCCCCOP(=O)(O)O [Compound 107, Phosphoric Acid Monooctyl Ester] | dose-dependent inhibition
4 | CCCCCCCCCCCCOP(=O)(O)O [Compound 108, Phosphoric Acid Monododecyl Ester] | dose-dependent inhibition

Source: patent publication US6875757B2, “LPA receptor agonists and antagonists and methods of use” (University of Tennessee Research Foundation, priority 2000, dated 2005)
